No constants are given. Whether binding was seen depends on the method and setting. Binding seen in cells or lysates may run through a third protein. A yes stands for co-enrichment or nearness to the bait. Other partners may have been found. A no says only that the protein was not detected with the bait. Tags and fused reporters may be left off the sequences shown.

Protein sequences, listed by entry. Tags and fused reporters are not part of them.
UniProt Q9XFH4: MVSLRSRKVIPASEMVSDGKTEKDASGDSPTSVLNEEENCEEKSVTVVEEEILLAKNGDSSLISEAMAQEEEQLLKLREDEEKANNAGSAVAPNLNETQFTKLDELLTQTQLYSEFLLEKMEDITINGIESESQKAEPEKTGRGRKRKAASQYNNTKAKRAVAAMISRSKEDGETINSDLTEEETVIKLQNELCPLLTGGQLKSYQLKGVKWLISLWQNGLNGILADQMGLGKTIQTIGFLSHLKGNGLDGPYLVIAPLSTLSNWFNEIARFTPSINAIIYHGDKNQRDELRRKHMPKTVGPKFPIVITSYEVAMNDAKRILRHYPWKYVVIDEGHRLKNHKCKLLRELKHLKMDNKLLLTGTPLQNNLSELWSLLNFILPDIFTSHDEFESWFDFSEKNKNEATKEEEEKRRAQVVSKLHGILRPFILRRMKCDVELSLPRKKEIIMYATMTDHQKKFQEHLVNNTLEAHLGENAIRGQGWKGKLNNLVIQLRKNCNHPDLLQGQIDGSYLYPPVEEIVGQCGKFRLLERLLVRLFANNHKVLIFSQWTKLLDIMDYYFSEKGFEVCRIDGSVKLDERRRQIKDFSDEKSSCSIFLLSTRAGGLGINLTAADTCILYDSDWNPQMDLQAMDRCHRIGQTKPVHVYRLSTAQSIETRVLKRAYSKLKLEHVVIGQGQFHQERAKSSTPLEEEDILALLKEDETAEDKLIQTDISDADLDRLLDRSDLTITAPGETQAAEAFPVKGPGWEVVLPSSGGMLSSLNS

This passage reports binding results from publication PMC6208443, “Arabidopsis AGDP1 links H3K9me2 to DNA methylation in heterochromatin” (Nature Communications, 2018).

The test concerns the target T1, Flag-AGDP1 (Arabidopsis thaliana) (UniProt Q500V5).
T1 sequence: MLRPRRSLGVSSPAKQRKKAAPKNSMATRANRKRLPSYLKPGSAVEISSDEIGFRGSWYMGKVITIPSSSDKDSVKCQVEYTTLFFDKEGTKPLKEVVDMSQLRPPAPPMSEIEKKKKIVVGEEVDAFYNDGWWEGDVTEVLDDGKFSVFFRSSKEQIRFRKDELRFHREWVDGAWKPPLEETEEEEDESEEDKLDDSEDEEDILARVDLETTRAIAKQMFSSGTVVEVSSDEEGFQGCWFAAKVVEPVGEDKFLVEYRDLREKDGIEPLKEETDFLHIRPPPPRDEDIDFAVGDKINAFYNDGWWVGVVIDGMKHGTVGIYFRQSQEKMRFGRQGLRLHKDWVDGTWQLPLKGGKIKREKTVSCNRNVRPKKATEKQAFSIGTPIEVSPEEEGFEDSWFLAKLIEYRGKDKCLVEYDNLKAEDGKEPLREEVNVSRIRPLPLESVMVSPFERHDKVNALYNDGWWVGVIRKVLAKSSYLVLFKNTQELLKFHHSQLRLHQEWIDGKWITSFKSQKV
Kind of test: affinity purification with mass spectrometry; immunoprecipitation of Flag-AGDP1 from pAGDP1-Flag-AGDP1 transgenic plants followed by mass spectrometry (IP-MS), four replicates.

For the substance DDM1 (from UniProt Q9XFH4 1-764), the binding result was “no binding”.
